Binding data for one substance are collected here from publication PMC4839630, “Investigation the Possibility of Using Peptides with a Helical Repeating Pattern of Hydro-Phobic and Hydrophilic Residues to Inhibit IL-10” (PLoS ONE, 2016).

By UniProt entry, the sequences of proteins in these tests, tags left out. Residues count along the entry.
UniProt P22301, residues 19-178: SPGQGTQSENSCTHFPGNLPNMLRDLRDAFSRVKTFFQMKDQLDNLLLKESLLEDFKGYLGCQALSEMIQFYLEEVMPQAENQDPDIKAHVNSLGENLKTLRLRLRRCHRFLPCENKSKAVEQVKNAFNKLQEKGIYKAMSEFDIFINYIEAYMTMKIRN

These are yes or no findings as the source states them, for the method shown. Some binding calls cover weakened binding; strength is not graded here.

In this assay the target is T1, Recombinant Human interleukin 10 receptor alpha (human) (UniProt Q13651).
T1 sequence: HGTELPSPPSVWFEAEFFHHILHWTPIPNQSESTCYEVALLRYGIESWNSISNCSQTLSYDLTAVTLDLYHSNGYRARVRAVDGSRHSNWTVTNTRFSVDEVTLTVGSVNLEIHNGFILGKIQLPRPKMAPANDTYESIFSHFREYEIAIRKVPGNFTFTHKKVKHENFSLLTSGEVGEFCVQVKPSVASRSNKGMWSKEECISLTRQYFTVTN
As to the kind of experiment: SPR; competitive binding assay: peptides at various concentrations co-injected with 33 nM IL-10 over immobilised IL-10R1, 25°C, 1X PBS pH 7.4; inhibition read as loss in total response units; both purified.

Take “Human IL10 (from UniProt P22301 19-178) (ligand)”: the binding entry is given as “binds”.
